Source: the supplement of paper PMC10849652
The other results are listed elsewhere or left out.

By UniProt entry, the sequences of proteins in these tests, tags left out. Where a name states a change or a piece, a line headed by the entry shows the natural chain unless it says otherwise.
UniProt Q96S66: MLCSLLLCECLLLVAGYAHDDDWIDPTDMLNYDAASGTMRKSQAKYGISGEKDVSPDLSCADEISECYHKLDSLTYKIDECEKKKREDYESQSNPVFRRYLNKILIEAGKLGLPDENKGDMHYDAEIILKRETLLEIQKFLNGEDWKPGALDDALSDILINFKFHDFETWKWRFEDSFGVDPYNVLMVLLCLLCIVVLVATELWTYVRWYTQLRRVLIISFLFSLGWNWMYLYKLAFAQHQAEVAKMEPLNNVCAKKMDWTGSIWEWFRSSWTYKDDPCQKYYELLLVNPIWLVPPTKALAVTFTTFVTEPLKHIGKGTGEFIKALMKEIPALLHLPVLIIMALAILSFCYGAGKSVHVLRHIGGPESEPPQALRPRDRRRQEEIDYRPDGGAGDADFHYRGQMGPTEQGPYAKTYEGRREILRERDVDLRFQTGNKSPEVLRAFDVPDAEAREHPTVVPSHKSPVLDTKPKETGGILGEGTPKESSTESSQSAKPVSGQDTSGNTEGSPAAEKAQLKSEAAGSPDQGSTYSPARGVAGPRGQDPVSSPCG
UniProt Q9H444: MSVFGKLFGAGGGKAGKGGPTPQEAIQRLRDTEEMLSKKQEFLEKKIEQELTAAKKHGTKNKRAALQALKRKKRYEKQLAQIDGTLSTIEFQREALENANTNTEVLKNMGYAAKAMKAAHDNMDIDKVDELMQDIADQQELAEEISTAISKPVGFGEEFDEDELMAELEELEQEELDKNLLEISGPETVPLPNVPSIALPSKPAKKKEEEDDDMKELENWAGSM
UniProt Q99828: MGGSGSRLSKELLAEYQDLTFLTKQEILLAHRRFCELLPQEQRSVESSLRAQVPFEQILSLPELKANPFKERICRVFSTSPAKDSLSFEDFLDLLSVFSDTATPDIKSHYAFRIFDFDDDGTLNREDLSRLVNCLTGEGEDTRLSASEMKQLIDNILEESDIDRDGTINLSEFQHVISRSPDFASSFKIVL
UniProt O14757: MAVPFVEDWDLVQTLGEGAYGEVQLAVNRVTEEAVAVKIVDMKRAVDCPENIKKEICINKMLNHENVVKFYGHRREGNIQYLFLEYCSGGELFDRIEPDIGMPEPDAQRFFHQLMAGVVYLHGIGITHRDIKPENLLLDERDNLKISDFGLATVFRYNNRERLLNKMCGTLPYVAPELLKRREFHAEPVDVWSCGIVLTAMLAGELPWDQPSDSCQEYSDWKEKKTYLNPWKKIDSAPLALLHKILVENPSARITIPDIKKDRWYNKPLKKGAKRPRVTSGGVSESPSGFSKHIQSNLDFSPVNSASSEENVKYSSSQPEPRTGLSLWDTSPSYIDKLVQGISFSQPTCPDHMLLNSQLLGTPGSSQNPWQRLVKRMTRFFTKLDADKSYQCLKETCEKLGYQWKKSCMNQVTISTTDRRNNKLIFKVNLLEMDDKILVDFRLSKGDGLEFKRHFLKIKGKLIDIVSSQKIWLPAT
UniProt O75122: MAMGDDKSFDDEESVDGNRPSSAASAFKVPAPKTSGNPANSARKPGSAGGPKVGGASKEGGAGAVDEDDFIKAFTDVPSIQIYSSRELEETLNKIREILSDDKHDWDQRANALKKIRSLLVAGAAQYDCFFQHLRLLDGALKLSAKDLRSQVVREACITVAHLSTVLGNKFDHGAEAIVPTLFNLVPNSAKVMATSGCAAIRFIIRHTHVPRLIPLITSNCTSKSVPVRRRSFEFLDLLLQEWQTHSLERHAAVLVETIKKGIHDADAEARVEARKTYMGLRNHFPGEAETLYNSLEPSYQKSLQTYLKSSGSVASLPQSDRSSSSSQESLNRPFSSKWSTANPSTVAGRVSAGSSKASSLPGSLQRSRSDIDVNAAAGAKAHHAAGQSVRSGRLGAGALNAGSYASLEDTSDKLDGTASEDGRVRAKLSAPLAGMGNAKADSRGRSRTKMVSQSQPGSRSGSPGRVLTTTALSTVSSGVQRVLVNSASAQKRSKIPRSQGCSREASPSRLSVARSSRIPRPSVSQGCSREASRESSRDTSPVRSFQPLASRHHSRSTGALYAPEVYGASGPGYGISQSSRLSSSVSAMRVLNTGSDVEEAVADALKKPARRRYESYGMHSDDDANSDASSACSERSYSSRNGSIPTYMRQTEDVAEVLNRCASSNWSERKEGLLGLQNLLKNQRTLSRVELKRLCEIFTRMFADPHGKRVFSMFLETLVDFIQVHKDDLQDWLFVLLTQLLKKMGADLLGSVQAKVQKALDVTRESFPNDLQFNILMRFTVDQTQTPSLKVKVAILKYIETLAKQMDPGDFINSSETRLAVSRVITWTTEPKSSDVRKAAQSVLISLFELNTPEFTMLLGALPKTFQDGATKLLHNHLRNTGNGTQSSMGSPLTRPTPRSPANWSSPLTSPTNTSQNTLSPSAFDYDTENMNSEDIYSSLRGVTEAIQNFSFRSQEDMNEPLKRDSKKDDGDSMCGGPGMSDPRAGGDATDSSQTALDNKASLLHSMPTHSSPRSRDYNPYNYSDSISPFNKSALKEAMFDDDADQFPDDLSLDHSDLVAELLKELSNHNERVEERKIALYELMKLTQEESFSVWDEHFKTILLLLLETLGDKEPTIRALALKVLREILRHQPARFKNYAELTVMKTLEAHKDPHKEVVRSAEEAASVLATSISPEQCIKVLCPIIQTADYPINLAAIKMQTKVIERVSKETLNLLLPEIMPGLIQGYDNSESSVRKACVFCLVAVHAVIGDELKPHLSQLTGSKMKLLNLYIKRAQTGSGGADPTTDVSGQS
UniProt P09496: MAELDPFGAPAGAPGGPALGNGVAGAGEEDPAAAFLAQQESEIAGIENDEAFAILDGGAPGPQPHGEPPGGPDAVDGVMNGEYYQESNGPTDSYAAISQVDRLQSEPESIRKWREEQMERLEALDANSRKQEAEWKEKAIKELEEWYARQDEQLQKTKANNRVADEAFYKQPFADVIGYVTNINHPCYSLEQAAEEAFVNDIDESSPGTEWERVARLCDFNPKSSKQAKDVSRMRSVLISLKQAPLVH
UniProt O96017, whole entry, looked up: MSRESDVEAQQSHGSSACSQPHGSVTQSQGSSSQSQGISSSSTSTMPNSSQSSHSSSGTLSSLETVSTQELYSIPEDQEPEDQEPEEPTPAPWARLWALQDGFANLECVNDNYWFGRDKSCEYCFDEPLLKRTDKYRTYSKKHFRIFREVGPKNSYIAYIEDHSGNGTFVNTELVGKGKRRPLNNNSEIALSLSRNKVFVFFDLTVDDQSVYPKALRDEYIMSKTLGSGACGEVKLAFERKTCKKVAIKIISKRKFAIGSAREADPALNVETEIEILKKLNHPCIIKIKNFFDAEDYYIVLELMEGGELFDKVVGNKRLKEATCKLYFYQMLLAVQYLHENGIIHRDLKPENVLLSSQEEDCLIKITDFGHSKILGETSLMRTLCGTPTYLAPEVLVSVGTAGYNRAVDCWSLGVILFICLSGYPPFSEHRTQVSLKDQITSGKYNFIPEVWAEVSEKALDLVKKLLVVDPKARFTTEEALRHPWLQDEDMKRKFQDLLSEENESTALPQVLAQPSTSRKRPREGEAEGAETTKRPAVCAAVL
UniProt Q9UKJ5: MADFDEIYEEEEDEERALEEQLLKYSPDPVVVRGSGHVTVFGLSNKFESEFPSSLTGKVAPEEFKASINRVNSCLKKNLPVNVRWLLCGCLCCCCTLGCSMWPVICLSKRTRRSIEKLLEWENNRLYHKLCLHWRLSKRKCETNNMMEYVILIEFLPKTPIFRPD
UniProt Q9NWW5: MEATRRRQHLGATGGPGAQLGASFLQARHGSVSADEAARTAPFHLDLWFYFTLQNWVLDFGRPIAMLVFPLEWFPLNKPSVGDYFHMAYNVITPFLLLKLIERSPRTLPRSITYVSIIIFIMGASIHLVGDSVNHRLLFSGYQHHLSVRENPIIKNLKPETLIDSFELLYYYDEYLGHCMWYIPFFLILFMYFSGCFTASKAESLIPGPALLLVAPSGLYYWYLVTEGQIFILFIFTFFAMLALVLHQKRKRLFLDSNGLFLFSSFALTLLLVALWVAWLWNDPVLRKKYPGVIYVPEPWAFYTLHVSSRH
UniProt P30622: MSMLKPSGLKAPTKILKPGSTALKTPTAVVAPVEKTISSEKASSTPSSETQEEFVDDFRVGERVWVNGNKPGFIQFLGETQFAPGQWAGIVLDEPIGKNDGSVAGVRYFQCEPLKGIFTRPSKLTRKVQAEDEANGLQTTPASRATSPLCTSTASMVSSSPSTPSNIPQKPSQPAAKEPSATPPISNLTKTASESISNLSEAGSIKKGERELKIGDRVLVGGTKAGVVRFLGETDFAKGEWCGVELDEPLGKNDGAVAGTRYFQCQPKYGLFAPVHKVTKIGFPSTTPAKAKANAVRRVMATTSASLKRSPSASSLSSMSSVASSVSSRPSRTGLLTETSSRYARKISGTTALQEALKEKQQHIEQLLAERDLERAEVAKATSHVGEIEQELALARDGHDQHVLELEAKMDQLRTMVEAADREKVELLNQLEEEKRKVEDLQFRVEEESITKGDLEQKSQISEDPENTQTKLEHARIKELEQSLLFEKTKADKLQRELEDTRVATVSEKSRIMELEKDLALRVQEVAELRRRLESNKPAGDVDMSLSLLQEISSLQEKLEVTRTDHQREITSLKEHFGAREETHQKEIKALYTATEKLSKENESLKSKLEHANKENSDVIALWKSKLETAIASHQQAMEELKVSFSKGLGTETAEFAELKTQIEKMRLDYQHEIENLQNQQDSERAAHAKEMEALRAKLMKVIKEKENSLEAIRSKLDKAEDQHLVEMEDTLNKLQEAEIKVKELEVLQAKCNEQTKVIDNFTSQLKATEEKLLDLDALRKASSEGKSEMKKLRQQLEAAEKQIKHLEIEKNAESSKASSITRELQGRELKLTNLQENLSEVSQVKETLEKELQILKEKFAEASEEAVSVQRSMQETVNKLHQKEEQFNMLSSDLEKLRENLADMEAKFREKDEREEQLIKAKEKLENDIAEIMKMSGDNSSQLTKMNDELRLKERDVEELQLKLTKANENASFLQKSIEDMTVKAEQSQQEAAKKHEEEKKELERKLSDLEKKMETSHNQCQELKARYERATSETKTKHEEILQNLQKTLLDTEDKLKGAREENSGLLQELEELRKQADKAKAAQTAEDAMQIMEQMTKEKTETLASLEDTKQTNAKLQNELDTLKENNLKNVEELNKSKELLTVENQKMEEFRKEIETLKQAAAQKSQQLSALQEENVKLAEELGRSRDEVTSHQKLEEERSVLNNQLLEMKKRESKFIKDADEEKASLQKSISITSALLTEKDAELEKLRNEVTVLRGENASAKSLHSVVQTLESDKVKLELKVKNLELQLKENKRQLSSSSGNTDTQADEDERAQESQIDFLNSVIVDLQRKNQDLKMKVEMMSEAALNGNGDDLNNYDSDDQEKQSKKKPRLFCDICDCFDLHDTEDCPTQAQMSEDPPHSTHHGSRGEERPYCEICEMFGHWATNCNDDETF
UniProt Q86X52: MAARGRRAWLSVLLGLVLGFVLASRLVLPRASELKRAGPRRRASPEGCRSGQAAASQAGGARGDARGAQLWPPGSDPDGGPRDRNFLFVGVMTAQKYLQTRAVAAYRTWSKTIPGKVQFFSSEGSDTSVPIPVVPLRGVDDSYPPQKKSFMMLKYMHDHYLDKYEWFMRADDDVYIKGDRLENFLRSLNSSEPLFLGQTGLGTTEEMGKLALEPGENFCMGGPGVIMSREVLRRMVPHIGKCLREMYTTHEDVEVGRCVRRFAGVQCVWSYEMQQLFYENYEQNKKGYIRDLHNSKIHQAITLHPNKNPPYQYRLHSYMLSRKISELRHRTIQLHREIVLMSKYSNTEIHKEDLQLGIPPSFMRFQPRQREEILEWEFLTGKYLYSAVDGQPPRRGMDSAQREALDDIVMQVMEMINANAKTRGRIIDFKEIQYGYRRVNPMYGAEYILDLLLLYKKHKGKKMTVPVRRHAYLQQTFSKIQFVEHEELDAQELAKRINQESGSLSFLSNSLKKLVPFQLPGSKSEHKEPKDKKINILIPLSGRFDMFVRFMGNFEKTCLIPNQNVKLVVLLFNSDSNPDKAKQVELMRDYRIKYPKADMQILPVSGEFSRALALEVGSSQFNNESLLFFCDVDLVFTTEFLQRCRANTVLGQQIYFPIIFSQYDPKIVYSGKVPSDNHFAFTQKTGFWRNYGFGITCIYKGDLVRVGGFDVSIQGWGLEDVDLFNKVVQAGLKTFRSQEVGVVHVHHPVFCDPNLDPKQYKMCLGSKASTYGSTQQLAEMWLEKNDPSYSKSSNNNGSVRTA
UniProt Q9Y696: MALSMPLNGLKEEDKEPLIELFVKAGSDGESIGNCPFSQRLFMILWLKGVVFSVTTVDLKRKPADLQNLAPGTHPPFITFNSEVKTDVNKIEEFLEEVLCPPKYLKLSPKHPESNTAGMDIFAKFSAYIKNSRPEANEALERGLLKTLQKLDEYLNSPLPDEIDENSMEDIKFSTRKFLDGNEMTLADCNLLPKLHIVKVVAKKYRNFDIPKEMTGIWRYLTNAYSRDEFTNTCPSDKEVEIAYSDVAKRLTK

What was measured:
Experiment in all cases: log2 fold change, soluble protein after heating vs DMSO (PISA); higher = thermal stabilisation; K562 lysate, 10 uM; active = over 0.2 and 3.5 SD of the protein, either way, in both replicates (recomputed)
nilotinib = compound: Cc1cn(-c2cc(NC(=O)c3ccc(C)c(Nc4nccc(-c5cccnc5)n4)c3)cc(C(F)(F)F)c2)cn1 [nilotinib]
How it was run: (§1)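 Log-two fold change in thermal stability relative to solvent controls is reported from duplicates. For each sample, crude K562 extract from dounce-homogenised pellets in PBS pH 7.4 with 1 mM MgCl2, at 1 mg/mL protein, was treated with 10 μM compound for 30 min. Aliquots heated for 3 min across 48°C-58°C were pooled, brought to 0.5% NP-40 at 4°C and cleared at 21,000xg for 90 min. The supernatant was quantified by TMTpro 16plex LC-MS/MS with channel sums equalised.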

[1] = compound: Cc1nc(Nc2n[nH]c3c2CN(C(=O)N[C@H](CN(C)C)c2ccccc2)C3(C)C)c2sccc2n1
How it was run: as §1

dasatinib = compound: Cc1nc(Nc2ncc(C(=O)Nc3c(C)cccc3Cl)s2)cc(N2CCN(CCO)CC2)n1 [dasatinib]
How it was run: as §1

[2] = compound: Cc1ncc(-c2ccnc(Nc3ccc(S(C)(=O)=O)cc3)n2)n1C(C)C
How it was run: as §1

[3] = compound: Cn1cc(-c2ccc3c(c2)CCN3C(=O)Cc2cccc(C(F)(F)F)c2)c2c(N)ncnc21
How it was run: as §1

quisinostat = compound: Cn1cc(CNCC2CCN(c3ncc(C(=O)NO)cn3)CC2)c2ccccc21 [quisinostat]
How it was run: as §1

tipifarnib = compound: Cn1cncc1[C@@](N)(c1ccc(Cl)cc1)c1ccc2c(c1)c(-c1cccc(Cl)c1)cc(=O)n2C [tipifarnib]
How it was run: as §1

[4] = compound: NC(=O)Nc1cc(-c2cccc(F)c2)sc1C(=O)N[C@H]1CCCNC1
How it was run: as §1

[5] = compound: NC(=O)c1cnc(N[C@@H]2CCCC[C@@H]2N)nc1Nc1cccc(-n2nccn2)c1
How it was run: as §1

[6] = compound: NC1(c2ccc(-c3nc4ccn5c(=O)[nH]nc5c4cc3-c3ccccc3)cc2)CCC1
How it was run: as §1

Target	log2 fold change (nilotinib)	log2 fold change [1]	log2 fold change (dasatinib)	log2 fold change [2]	log2 fold change [3]	log2 fold change (quisinostat)	log2 fold change (tipifarnib)	log2 fold change [4]	log2 fold change [5]	log2 fold change [6]
CLCC1 (UniProt Q96S66)	inactive: 0.016	inactive: 0.007	inactive: 0.039	inactive: -0.007	inactive: 0.001	inactive: 0.058	inactive: -0.021	inactive: -0.035	inactive: -0.009	inactive: -0.004
CLCN3 isoform 2 (UniProt P51790)	inactive: 0.017	inactive: -0.018	inactive: -0.012	inactive: 0.006	inactive: -0.008	inactive: 0.01	inactive: -0.012	inactive: 0.04	inactive: 0.022	inactive: 0.024
CHMP4B (UniProt Q9H444)	inactive: -0.078	inactive: 0.024	inactive: 0.031	inactive: -0.01	inactive: 0.005	inactive: 0.124	inactive: 0.043	inactive: -0.055	inactive: 0.001	inactive: 0.014
CLDN12 (UniProt P56749)	inactive: -0.015	inactive: 0.034	inactive: -0.048	inactive: 0.028	inactive: 0.028	inactive: -0.001	inactive: -0.084	inactive: -0.085	inactive: -0.076	inactive: 0.054
CIB1 (UniProt Q99828)	inactive: -0.014	inactive: -0.016	inactive: 0.022	inactive: 0.045	inactive: 0.008	inactive: 0.004	inactive: 0.002	inactive: -0.011	inactive: 0.041	inactive: 0
CHEK1 (UniProt O14757)	inactive: -0.011	inactive: -0.158	inactive: 0.02	inactive: -0.048	inactive: -0.007	inactive: -0.032	inactive: 0.016	active: 0.242	inactive: 0.003	inactive: -0.042
CLASP2 isoform 3 (UniProt O75122)	inactive: 0.013	inactive: -0.004	inactive: -0.024	inactive: 0.02	inactive: 0.021	inactive: -0.042	inactive: -0.063	inactive: -0.07	inactive: -0.007	inactive: 0.032
CISD3 (UniProt P0C7P0)	inactive: -0.052	inactive: 0.018	inactive: -0.003	inactive: 0.013	inactive: 0.009	inactive: 0.001	inactive: -0.016	inactive: 0.012	inactive: 0.062	inactive: 0.004
CKMT1A (UniProt P12532)	inactive: 0.008	inactive: -0.01	inactive: -0.018	inactive: 0.033	inactive: 0.029	inactive: -0.054	inactive: -0.025	inactive: 0.014	inactive: -0.04	inactive: 0.028
CLTA (UniProt P09496)	inactive: 0.037	inactive: -0.033	inactive: 0.063	inactive: 0.026	inactive: 0.014	inactive: 0.168	inactive: 0.046	inactive: -0.034	inactive: -0.028	inactive: 0.014
CHEK2 (UniProt O96017)	inactive: -0.022	active: 0.285	inactive: 0.04	inactive: -0.007	inactive: 0.05	inactive: -0.057	inactive: 0.023	active: 0.326	inactive: 0.013	inactive: 0.035
CHIC2 (UniProt Q9UKJ5)	inactive: -0.063	inactive: -0.029	inactive: -0.258	inactive: 0.073	inactive: 0.091		inactive: -0.134		inactive: 0.043	inactive: -0.067
CHD9 (UniProt Q3L8U1)	inactive: 0.209	inactive: 0.125	inactive: -0.124	inactive: -0.279	inactive: -0.109	inactive: -0.029	inactive: -0.017	inactive: 0		inactive: 0.032
CLN6 (UniProt Q9NWW5)	inactive: 0.036	inactive: 0.061	inactive: -0.021	inactive: 0.051	inactive: 0.009	inactive: 0.132	inactive: -0.06	inactive: -0.1		inactive: 0.01
CLASRP (UniProt Q8N2M8)	inactive: -0.008	inactive: -0.099	inactive: -0.025	inactive: -0.082	inactive: -0.038	inactive: -0.057	inactive: 0.004	inactive: -0.039	inactive: 0	inactive: 0.015
CIAPIN1 (UniProt Q6FI81)	inactive: 0.004	inactive: -0.009	inactive: 0.022	inactive: -0.002	inactive: -0.025	inactive: -0.029	inactive: 0.017	inactive: -0.009	inactive: -0.016	inactive: 0.011
CLIP1 isoform 2 (UniProt P30622)	inactive: 0.055	inactive: -0.04	inactive: 0.049	inactive: -0.073	inactive: -0.01	inactive: -0.049	inactive: 0.015	inactive: -0.015	inactive: 0.029	inactive: -0.059
CHMP4C (UniProt Q96CF2)	inactive: 0.05	inactive: -0.032	inactive: 0.028	inactive: -0.022	inactive: -0.002	inactive: -0.1	inactive: -0.011	inactive: -0.037	inactive: -0.019	inactive: -0.023
CHMP4A isoform 2 (UniProt Q9BY43)	inactive: -0.026	inactive: -0.021	inactive: 0.039	inactive: 0	inactive: -0.011	inactive: -0.145	inactive: 0.017	inactive: -0.029	inactive: -0.02	inactive: -0.009
CHD4, A0A2R8Y521	inactive: -0.125	inactive: -0.088	inactive: -0.09	inactive: -0.156	inactive: -0.247		inactive: 0.391		inactive: -0.174	
CHSY1 (UniProt Q86X52)	inactive: -0.228	inactive: 0.082	inactive: -0.092	inactive: -0.326	inactive: -0.024		inactive: 0.061		inactive: -0.141	inactive: 0.043
CMTR1 (UniProt Q8N1G2)	inactive: -0.028	inactive: -0.02	inactive: -0.048	inactive: 0.018	inactive: 0.02	inactive: 0.031	inactive: -0.05	inactive: 0.039	inactive: 0.019	inactive: -0.006
CKAP2L (UniProt Q8IYA6)	inactive: 0.028	inactive: 0.011	inactive: -0.079	inactive: 0.165	inactive: -0.065	inactive: -0.083	inactive: -0.005	inactive: -0.018		inactive: -0.265
CLIC4 (UniProt Q9Y696)	inactive: -0.004	inactive: 0.014	inactive: 0.02	inactive: 0.01	inactive: -0.031	inactive: -0.032	inactive: -0.01	inactive: 0.021	inactive: -0.008	inactive: 0.007
CHAF1A (UniProt Q13111)	inactive: -0.027	inactive: 0.032	inactive: -0.068	inactive: 0.008	inactive: -0.032	inactive: -0.053	inactive: 0.019	inactive: -0.001	inactive: -0.031	inactive: 0.036
CLCN7 (UniProt P51798)	inactive: 0.033	inactive: -0.015	inactive: 0.021	inactive: 0.028	inactive: -0.021	inactive: -0.066	inactive: 0.014	inactive: -0.023	inactive: -0.015	inactive: 0.013
CLIP1 isoform 1 (UniProt P30622)	inactive: -0.01	inactive: 0.01	inactive: 0.022	inactive: 0.013	inactive: 0.001	inactive: 0.008	inactive: 0.002	inactive: -0.004	inactive: -0.002	inactive: -0.002
CLPTM1L (UniProt Q96KA5)	inactive: 0.037	inactive: -0.005	inactive: 0.006	inactive: 0	inactive: -0.016	inactive: 0.011	inactive: -0.026	inactive: 0.046	inactive: 0.016	inactive: -0.069

Not a retest: entries from further up.
Target	log2 fold change (nilotinib)	log2 fold change [1]	log2 fold change (dasatinib)	log2 fold change [2]	log2 fold change [3]	log2 fold change (quisinostat)	log2 fold change (tipifarnib)	log2 fold change [4]	log2 fold change [5]	log2 fold change [6]
CMTR1 (UniProt Q8N1G2)	inactive: -0.028	inactive: -0.02	inactive: -0.048	inactive: 0.018	inactive: 0.02	inactive: 0.031	inactive: -0.05	inactive: 0.039	inactive: 0.019	inactive: -0.006
CKAP2L (UniProt Q8IYA6)	inactive: 0.028	inactive: 0.011	inactive: -0.079	inactive: 0.165	inactive: -0.065	inactive: -0.083	inactive: -0.005	inactive: -0.018		inactive: -0.265
